# Source: paper PMC11680790, “Structural and functional determination of peptide versus small molecule ligand binding at the apelin receptor” (Nature Communications, 2024)
# Several values for one entry are separate records, joined by “and”; a condition that tells them apart may be missing. Identical values can stand only once.
# Test system: hESC-CM
# Test: Apelin peptide secretion ELISA
# Type: cell-based, human
# Conditions: single replicates
substance,measurement,setting,value
Apelin,"Secretion, Apelin",R/H168^4.64,0.2218 ng/mL and 0.2683 ng/mL and 0.4082 ng/mL
same,"Secretion, Apelin",WT,0.0916 ng/mL and 0.08 ng/mL and 0.1733 ng/mL and 0.0984 ng/mL and 0.0688 ng/mL and 0.0609 ng/mL
